Experimental findings from publication doi:10.1101/277269 are described below.

No constants are given. Whether binding was seen depends on the method and setting. Binding seen in cells or lysates may run through a third protein. Some results given as binding are weak or reduced against the parent protein; the word gives no strength. Tags and fused reporters may be left off the sequences shown.

The target of the assay is T1, Cluc-AtRAR1 (Arabidopsis thaliana) (UniProt Q9SE33).
T1 sequence: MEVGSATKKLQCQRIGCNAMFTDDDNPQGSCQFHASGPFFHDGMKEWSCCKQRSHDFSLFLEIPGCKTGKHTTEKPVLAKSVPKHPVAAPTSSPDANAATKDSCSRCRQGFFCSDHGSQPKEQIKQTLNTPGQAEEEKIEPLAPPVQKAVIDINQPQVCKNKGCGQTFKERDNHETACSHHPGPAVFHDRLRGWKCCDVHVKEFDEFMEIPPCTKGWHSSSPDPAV
Kind of assay: split reporter.

B1: AtSGT1b-Nluc (protein, UniProt Q9SUT5 1-358)
chain: MAKELAEKAKEAFLDDDFDVAVDLYSKAIDLDPNCAAFFADRAQANIKIDNFTEAVVDANKAIELEPTLAKAYLRKGTACMKLEEYSTAKAALEKGASVAPNEPKFKKMIDECDLRIAEEEKDLVQPMPPSLPSSSTTPLATEADAPPVPIPAAPAKPMFRHEFYQKPEEAVVTIFAKKVPKENVTVEFGEQILSVVIDVAGEEAYHLQPRLFGKIIPEKCRFEVLSTKVEIRLAKAEIITWASLEYGKGQSVLPKPNVSSALSQRPVYPSSKPAKDWDKLEAEVKKQEKDEKLDGDAAMNKFFSDIYSSADEDMRRAMNKSFAESNGTVLSTNWKEVGTKKVESTPPDGMELKKWEY
In the case of B1, the binding entry is reported as “binds”.
